# Test results: patent publication EP4831176A1, “BICYCLIC FUSED HETEROAROMATIC RING DERIVATIVE, AND PHARMACEUTICAL COMPOSITION AND USE THEREOF” (dated 2026)
# By UniProt entry, the sequences of proteins in these tests, tags left out.
# UniProt O75530, whole entry: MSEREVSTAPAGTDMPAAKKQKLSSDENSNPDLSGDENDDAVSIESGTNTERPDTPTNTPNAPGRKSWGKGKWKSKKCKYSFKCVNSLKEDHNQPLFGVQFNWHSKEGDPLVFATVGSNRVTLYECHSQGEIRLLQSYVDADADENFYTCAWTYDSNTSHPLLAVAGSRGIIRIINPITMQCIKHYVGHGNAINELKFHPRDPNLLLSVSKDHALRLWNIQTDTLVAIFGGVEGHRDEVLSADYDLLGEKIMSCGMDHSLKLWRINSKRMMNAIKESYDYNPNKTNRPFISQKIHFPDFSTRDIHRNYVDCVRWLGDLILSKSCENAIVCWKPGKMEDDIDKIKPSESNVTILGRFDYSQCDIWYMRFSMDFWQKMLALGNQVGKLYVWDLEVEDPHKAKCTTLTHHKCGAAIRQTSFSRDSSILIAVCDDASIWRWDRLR
# The match of structure and compound is tentative.
# Molecular target: EED protein (Homo sapiens, UniProt O75530)
# Assay: EED protein degradation in Karpas-422 cells, In-cell western (ICW)
# Details: 18 hours incubation
row,Structure (SMILES),Dmax [%]
1,Cc1nc(CCC(=O)NCCOc2ccc(OCC(=O)N[C@H](C(=O)N3C[C@H](O)C[C@H]3C(=O)NCc3ccc(-c4scnc4C)cc3)C(C)(C)C)cc2)ccc1-c1cnc(NCc2c(F)ccc3c2CCO3)n2cnnc12,76
2,Cn1c(=O)n(C2CCC(=O)NC2=O)c2ccc(N3CCC(CN4CCC(c5ccc(-c6cnc(NCc7c(F)ccc8c7CCO8)n7cnc(Cl)c67)cc5)CC4)CC3)cc21 (stereo not shown),59
3,Cn1c(=O)n(C2CCC(=O)NC2=O)c2ccc(N3CCC(CN4CCC(c5ccc(-c6cnc(NCc7c(F)ccc8c7CCO8)n7cc(C#N)nc67)cc5)CC4)CC3)cc21 (stereo not shown),55
4,Cn1nc(C2CCC(=O)NC2=O)c2ccc(N3CCC(CN4CCC(c5ccc(-c6cnc(NCc7c(F)ccc8c7CCO8)n7cnc(P(C)(C)=O)c67)cc5)CC4)CC3)cc21 (stereo not shown),61
5,Cc1nc(C2CCN(CC3CCN(c4ccc5c(C6CCC(=O)NC6=O)nn(C)c5c4)CC3)CC2)ccc1-c1cnc(NCc2c(F)ccc3c2CCO3)n2cnc(Cl)c12 (stereo not shown),63
6,Cn1nc(C2CCC(=O)NC2=O)c2ccc(N3CCN(C4CCN(Cc5ncc(-c6cnc(NCc7c(F)ccc8c7CCO8)n7cnc(Cl)c67)cn5)CC4(F)F)CC3)cc21 (stereo not shown),66
7,Cc1nc(C2CCN(CC3CCN(c4ccc5c(C6CCC(=O)NC6=O)nn(C)c5c4)CC3)CC2)ccc1-c1cnc(NCc2c(F)ccc3c2CCO3)n2cnc(F)c12 (stereo not shown),71
8,Cn1nc(C2CCN(CC3CCN(c4cc5c(cc4F)c(C4CCC(=O)NC4=O)nn5C)CC3)CC2)cc1-c1cnc(NCc2c(F)ccc3c2CCO3)n2cnc(Cl)c12 (stereo not shown),56
9,Cn1nc(C2CCC(=O)NC2=O)c2ccc(N3CCC(CN4CCC(n5cc(-c6cnc(NCc7c(F)ccc8c7CCO8)n7cnc(Cl)c67)nn5)CC4)CC3)cc21 (stereo not shown),69
10,Cc1nc(-c2cnc(NCc3c(F)ccc4c3CCO4)n3cnc(Cl)c23)ccc1C1CCN(CC2CCN(c3ccc4c(C5CCC(=O)NC5=O)nn(C)c4c3)CC2)CC1 (stereo not shown),67
11,Cc1nc(C(=O)NC2CCN(CC3CCN(c4ccc5c(C6CCC(=O)NC6=O)nn(C)c5c4)CC3)CC2)ccc1-c1cnc(NCc2c(F)ccc3c2CCO3)n2cnc(Cl)c12 (stereo not shown),63
12,Cn1nc(C2CCC(=O)NC2=O)c2cc(F)c(N3CCC(CN4CCC(c5ccc(-c6cnc(NCc7c(F)ccc8c7CCO8)n7cnc(Cl)c67)nn5)CC4)CC3)cc21 (stereo not shown),66
13,Cn1c(=O)n(C2CCC(=O)NC2=O)c2ccc(N3CCC(CN4CCC(c5ccc(-c6cnc(NCc7c(F)ccc8c7CCO8)n7cnc(S(C)(=O)=O)c67)cc5)CC4)CC3)cc21 (stereo not shown),55
